Data reported in patent EP1921115B1, “Use of 3-hydroxy-cyclohex-2-enone azo based dyes in optical layers” (Clariant Finance (BVI) Limited, priority 2006, dated 2008).

Assay: Recording evaluation of optical disc with dye optical layer
Settings: laser 405 nm, NA 0.65, CLV 6.61 m/sec; for PRSNR / SbER: information recorded in adjacent tracks
Excerpt: A definition and the measuring techniques of PRSNR are described in a book available from DVD Format Logo Licensing Co., Ltd. for example, Annex H of Version 0.9, PART 1 Physical Specifications, DVD Specifications for High Density Read-Only Disk.
A definition and the measuring techniques of SbER are described in a book available from DVD Format Logo Licensing Co., Ltd. for example, Annex H of Version 0.9, PART 1 Physical Specifications, DVD Specifications for High Density Read-Only Disk.
PRSNR and SbER are measured in a state in which information has been recorded in the adjacent tracks.
A definition and the measuring techniques for the light reflectivity (R) is described in a book available from DVD Format Logo Licensing Co., Ltd. for example, Annex D of Version 0.9, PART 1 Physical Specifications, DVD Specifications for High Density Read-Only Disk.
1.4% by weight of the compound of formula (1), prepared according to example 1, are dissolved in 2,2',3,3'-tetrafluoro-1-propanol and the solution is filtered through a Teflon filter of pore size 0.2 µm and applied by spin-coating at 1000 rpm to the surface of a 0.6 mm thick, grooved polycarbonate disc of 120 mm diameter. The excess solution is spun off by increasing the rotational speed. On evaporation of the solvent, the dye remains behind in the form of a uniform, amorphous solid layer, the optical layer. After drying the optical layer in a circulating-air oven at 70°C (10 min) in a vacuum coating apparatus, a 100 µm thick silver layer is then applied to the recording layer by atomization. Then a 6 µm thick protective layer of a UV curable photopolymer (650-020, DSM) is applied thereto by means of spincoating. Finally, a second substrate is provided to combine with the resin protection layer using an attachment layer. This completes the manufacturing of a high-density recordable optical disc, the optical data recording medium. Evaluation tests are performed using an optical disk evaluation device available from Pulse Tech Co., Ltd. The testing conditions are the following ones: • Numerical aperture (NA) of the optical head: 0.65 • Wavelength of a laser light for recording and reproduction: 405 nm • Constant linear velocity (CLV): 6.61 m/sec. • Track pitch: 400 nm • Wobble amplitude of the groove track: 14 nm • Groove depth: 90 nm.

Row | SMILES | Pw | modulation | reflectivity | PRSNR | SbER
1 | CCOC(=O)C1C(O)=C(N=Nc2ccc(C(F)(F)F)cc2[N+](=O)[O-])C(=O)CC1(C)C (stereo not shown) [compound of formula (7)] | 8.4 mW | 0.40 | 20.18 | 17.4 | 1.00E-05
2 | CCOC(=O)C1C(O)=C(N=Nc2ccc(OC)cc2[N+](=O)[O-])C(=O)CC1(C)C (stereo not shown) [compound of formula (6)] | 8.2 mW | 0.40 | 20.18 | 19.1 | 6.90E-06
3 | CCOC(=O)C1C(O)=C(N=Nc2ccc(C)cc2[N+](=O)[O-])C(=O)CC1(C)C (stereo not shown) [compound of formula (1)] | 7.1 mW | 0.49 | 21.36 | 26.1 | 7.50E-08
4 | CCOC(=O)C1C(O)=C(N=Nc2ccc(Cl)cc2[N+](=O)[O-])C(=O)CC1(C)C (stereo not shown) [compound of formula (3)] | 7.3 mW | 0.49 | 22.72 | 28.6 | 5.20E-08
5 | CCOC(=O)C1C(O)=C(N=Nc2ccc(S(C)(=O)=O)cc2[N+](=O)[O-])C(=O)CC1(C)C (stereo not shown) [compound of formula (5)] | 7.3 mW | 0.51 | 19.04 | 24 | 2.00E-07
